Laboratory results taken from publication PMC11079001.
No constants are given. Whether binding was seen depends on the method and setting. In cells and extracts the contact can be indirect. Some binding calls cover weakened binding; strength is not graded here. Where a sequence is shown, tags or fusion partners need not be part of it.

Chains of the proteins cited; added tags and fusions are not shown.
UniProt P52286: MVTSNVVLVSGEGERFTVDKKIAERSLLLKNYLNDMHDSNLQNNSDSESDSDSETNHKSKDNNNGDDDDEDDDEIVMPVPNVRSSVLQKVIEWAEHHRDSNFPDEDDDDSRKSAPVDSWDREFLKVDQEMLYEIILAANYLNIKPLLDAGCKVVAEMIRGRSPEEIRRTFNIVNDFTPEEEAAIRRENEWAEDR

Legend:
[1] = molecular target: T1, 12xMyc-Met30 ∆236–239 (S. cerevisiae) (UniProt P39014); assay: co-IP; 12xMyc-Met30 variants immunoprecipitated on MYC-trap beads from 1 mg native yeast whole cell lysate (Triton X-100 buffer: 50 mM HEPES pH 7.5, 0.2% Triton X-100, 200 mM NaCl), overnight at 4 °C; co-precipitated Skp1 by western blot; cells untreated or treated with 100 µM CdCl2 (time courses); also H2O2 or zinc pre-treatment
T1 sequence: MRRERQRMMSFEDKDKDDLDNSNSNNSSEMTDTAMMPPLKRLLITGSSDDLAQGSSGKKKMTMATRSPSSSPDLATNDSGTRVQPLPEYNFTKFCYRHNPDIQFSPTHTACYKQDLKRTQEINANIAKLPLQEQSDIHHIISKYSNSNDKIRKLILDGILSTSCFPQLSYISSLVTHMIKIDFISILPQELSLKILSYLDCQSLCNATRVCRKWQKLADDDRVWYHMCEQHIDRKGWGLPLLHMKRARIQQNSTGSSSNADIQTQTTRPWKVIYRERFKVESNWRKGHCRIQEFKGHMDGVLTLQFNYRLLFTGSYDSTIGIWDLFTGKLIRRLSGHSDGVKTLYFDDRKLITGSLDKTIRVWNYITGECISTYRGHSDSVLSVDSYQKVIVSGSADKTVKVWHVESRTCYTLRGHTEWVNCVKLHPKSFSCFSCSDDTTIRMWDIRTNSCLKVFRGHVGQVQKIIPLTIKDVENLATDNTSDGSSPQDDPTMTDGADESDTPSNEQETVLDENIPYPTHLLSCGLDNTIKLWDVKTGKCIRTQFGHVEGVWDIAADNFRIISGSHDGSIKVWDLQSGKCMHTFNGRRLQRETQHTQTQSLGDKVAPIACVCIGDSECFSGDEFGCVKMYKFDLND

[2] = molecular target: T2, 12xMyc-Met30 ∆95–99 (S. cerevisiae) (UniProt P39014); assay: as above
T2 sequence: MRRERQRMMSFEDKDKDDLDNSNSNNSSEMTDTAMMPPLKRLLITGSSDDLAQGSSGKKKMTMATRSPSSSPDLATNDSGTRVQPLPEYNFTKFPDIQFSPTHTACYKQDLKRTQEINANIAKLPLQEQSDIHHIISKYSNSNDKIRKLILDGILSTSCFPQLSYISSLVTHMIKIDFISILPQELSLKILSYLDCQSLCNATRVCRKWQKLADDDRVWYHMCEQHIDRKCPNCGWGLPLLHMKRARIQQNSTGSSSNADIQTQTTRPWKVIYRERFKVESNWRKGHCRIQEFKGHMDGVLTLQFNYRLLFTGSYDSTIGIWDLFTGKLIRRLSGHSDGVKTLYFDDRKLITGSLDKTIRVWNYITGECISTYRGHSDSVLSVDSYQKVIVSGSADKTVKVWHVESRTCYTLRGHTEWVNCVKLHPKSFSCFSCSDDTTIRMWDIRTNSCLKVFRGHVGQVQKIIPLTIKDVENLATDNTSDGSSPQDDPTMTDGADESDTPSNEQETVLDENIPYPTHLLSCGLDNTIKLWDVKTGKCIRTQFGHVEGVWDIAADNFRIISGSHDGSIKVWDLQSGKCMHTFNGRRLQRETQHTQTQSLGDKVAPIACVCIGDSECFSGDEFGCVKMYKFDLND

binding [1]: binds | binding [2]: binds
Substance: Skp1 (from UniProt P52286 1-194)
